Laboratory results reported in publication PMC5721685.
Results are given in words; binding and its absence hold for the method and conditions named. Binding seen in cells or lysates may run through a third protein. Some entries that bind do so weakly or less than the wild type. Blank lines part the entries; values can stand above or below the binder they belong to.

The chains behind the UniProt entries cited, without tags or fusion partners.
UniProt P74177: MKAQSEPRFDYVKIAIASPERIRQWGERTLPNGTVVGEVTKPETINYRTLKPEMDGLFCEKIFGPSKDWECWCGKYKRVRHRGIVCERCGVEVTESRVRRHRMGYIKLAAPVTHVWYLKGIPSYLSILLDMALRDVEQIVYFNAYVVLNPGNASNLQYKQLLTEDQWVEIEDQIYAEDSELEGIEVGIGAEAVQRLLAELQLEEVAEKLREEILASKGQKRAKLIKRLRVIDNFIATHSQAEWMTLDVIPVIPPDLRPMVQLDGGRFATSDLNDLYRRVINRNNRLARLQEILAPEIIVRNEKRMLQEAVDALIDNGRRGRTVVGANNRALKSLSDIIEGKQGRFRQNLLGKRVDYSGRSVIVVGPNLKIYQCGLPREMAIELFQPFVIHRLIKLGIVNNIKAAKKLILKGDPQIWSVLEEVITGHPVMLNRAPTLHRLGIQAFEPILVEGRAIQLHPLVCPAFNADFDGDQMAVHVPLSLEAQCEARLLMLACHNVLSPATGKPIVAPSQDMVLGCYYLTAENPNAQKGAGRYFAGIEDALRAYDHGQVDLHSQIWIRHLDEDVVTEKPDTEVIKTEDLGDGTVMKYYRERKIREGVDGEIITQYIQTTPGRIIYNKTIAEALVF

Tests used:
[1] = biological target: His-tagged γ-subunit of RNA polymerase core (Synechocystis sp. PCC 6803) (UniProt P74177); test: pull-down; His-tagged RNAP complexes collected with Dynabeads HIS-Tag Isolation and Pulldown Kit from 900 μg soluble protein fraction of WT-RNAP-HIS and ΔssaA-RNAP-HIS cells; standard conditions, 6 d nitrogen depletion, and 1 h, 4 h, 22 h recovery after nitrogen addition; SDS-PAGE and immunoblot, σ factor content normalized to α or β subunit
[2] = biological target: His-tagged γ-subunit of RNA polymerase core (Synechocystis sp. PCC 6803) (UniProt P74177); test: pull-down; as a1, cells after 6 days of nitrogen depletion (0 h + N) only; His-tagged RNAP complexes collected from the soluble protein fraction, immunoblot

- binding [1]: binds
B1: β subunit of the RNAP core (protein, UniProt P77965 1-1102)
chain: MTNLATTMLPDLIEIQHASFHWFLEEGLIEELNSFSPISDYTGKLELHFLGKDYKLKQPKYDVDESKRRDASYSVQMYVPTRLINKETGEIKEQEVFIGDLPLMTERGTFIINGAERVIVNQIVRSPGVYYKKELDKNGRRTYSASLIPNRGAWLKFETDKNGLVYVRIDKTRKLSAQVLLKAIGLSDNEILDSLSHPEFYQKTLDKEGNPTEEEALVELYKKLRPGEPPTVSGGQQLLESRFFDPKRYDLGRVGRYKLNKKLRLNEADTTRVLTPQDILAAINYLINLEFDVGTTDDIDHLGNRRVRSVGELLQNQIRVGLNRLERIIRERMTVSESDALTPASLVNPKPLVAAIKEFFGSSQLSQFMDQTNPLAELTHKRRISALGPGGLTRERAGFAVRDIHPSHHGRICPVETPEGPNAGLIGSLATCARVNDYGFIETPYFRVESGRVRKDLDPVYLTADEEDDMRVAPGDIPTDEEGNIIGESVPIRYRQEFSTTSPEQVDYVAVSPVQIISVATSMIPFLEHDDANRALMGSNMQRQAVPLLRPERPLVGTGLEAQAARDSGMVIVSRTHGIVTYVDATEIRVQPHSPDNPAEKGEEIVYPIQKYQRSNQDTCLNQRPLVYAGEDVVPGQVLADGSATEGGELALGQNILVAYMPWEGYNYEDAILISERLVYDDVYTSIHIEKFEIEARQTKLGPEEITREIPNVGEDALRNLDEHGIIRIGAWVESGDILVGKVTPKGEADQPPEEKLLRAIFGEKARDVRDNSLRVPNGEKGRVVDVRVFTREKGDELPPGANMVVRIYVAQKRKIQVGDKMAGRHGNKGIISRILPIEDMPYLPDGRPIDIALNPLGVPSRMNVGQVFECLLGWAGENLGVRFKITPFDEMYGEEASRDTVHGLLEEASQRPNKDWVFNENHPGKIQVFDGRTGEPFDRPITVGQAYMLKLVHLVDDKIHARSTGPYSLVTQQPLGGKAQQGGQRFGEMEVWALEAYGAAYILQELLTVKSDDMQGRNEALNAIVKGKSIPRPGTPESFKVLMRELQSLGLDIAAHKVQLSEDGESADAEVDLMIDSQRRAPNRPTYESLHTEEDLEEEEV

- binding [2]: binds weakly
- binding [1]: binds
B2: primary σ factor SigA (protein, UniProt P74565 1-425)
chain: MTQTKEPLTKAESAELEQEIELSQYINTDDIDDDDIDVEDLEQEVAATEGKEKKVRKIRKDAVKKKPYTEDSIRIYLQEIGRIRLLRAEEEIELARQIADLLELELIRDNLTLQLERQPSELEWGKQVWKLETAKQRLVGDKKKEPKKKDIDSYLANPDNELSLENEWSQQPNKNFAAFRRRLFLDRRAKDKMVQSNLRLVVSIAKKYMNRGLSFQDLIQEGSLGLIRAAEKFDHEKGYKFSTYATWWIRQAITRAIADQSRTIRLPVHLYETISRIKKTTKLLSQEMRRKPTEEEIAEKMEMTIEKLRFIAKSAQLPISLETPIGKEEDSRLGDFIEADGETPEDEVSKNLLREDLENVLDTLSPRERDVLRLRYGLDDGRMKTLEEIGQIFNVTRERIRQIEAKALRKLRHPNRNSILKEYIR

- binding [1]: binds
B3: α subunit of the RNAP core (protein, UniProt P73297 1-314)
chain: MAQFQIECVESSTRKNQQQYSKFSLEPLDRGQGTTVGNALRRVLLSNLPGAAVTAIRIAGVNHEFATILGVREDVLEIMLNMKELVLKSYTDQPQIGRLTAIGPGTVTAAQFEVPSEVEVIDPNQYIATLAEGAKLEMEFRVERGVGYRVIERGKDENSSLDFLQIDSVFMPVTKVNYTVEDIRADGMSPKDRLILDIWTNGSIQPREALSEASDIIANLFIPLKDLNELEAAHSDYQDEVNPESQIPIEELQLSVRAYNCLKRAQINSVADLLEYSQEDLLEIKNFGLKSAEEVIEALQKRLGITLPHEKAKA
